{"source": "PubChem BioAssay AID1347076", "about": "(National Center for Advancing Translational Sciences (NCATS), 2019)", "note": "Among all 400,000 compounds or so, about 13,000 (3.2%) were called active. The inconclusive results got no clear call from the source; some entries with a clear call stand among them for comparison. The call rests on the fitted dose curve; in most records, active means well fitted cell-killing curve with a large enough effect; inconclusive means small, poorly fitted or top-dose-only effect, or effect the other way; inactive means flat fitted curve, though single readings scatter. Potencies of inconclusive entries are doubtful fits and often do not repeat. On the % scale 0 is the no-effect control and ±100 the full control effect; potency means the concentration at half of the fitted maximal effect."}
{"assay": "qHTS assay for MDR1-selective chemotherapeutics: Primary screen using the drug-selected MDR subline cells KB-V1; further: nearly all actives have a fitted effect of over 60% in size", "details": "KB-V1 MDR cells viability, CellTiter-Glo, 72 h; activity change, negative = cytotoxicity: at 46.1 µM (top of the series)", "how_it_was_run": "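Potencies derive from concentration-effect curves fitted to normalized luminescence (CellTiter-Glo) of KB-V1 cells treated for 72 h at 37 degrees C in phenol-red-free DMEM containing 10% FBS.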"}
{"smiles": "Fc1ccc(Cn2nnnc2CN2CCN(C3CCCCC3)CC2)cc1", "Potency": "inconclusive: 20.6 µM [cytotoxic, partial curve, poor fit]"}
{"smiles": "O=C(CSc1nnnn1-c1ccc(Cl)cc1)Nc1cccnc1Cl", "Potency": "active: 16.4 µM"}
{"smiles": "O=C(N[C@@H](Cc1ccccc1)C(=O)O)c1ccncc1", "Potency": "inconclusive: 14.6 µM [rising, partial curve, poor fit]"}
{"smiles": "O=C1CC(Sc2ccc(Cl)cc2)C(=O)N1Cc1ccncc1", "note": "(stereo unspecified)", "Potency": "inactive"}
{"smiles": "COc1ccc(C(=O)C(C)Oc2cccc(NC(=O)c3cccc([N+](=O)[O-])c3)c2)cc1", "note": "(stereo unspecified)", "Potency": "active: 2.31 µM"}
{"smiles": "Cc1oc(S(=O)(=O)N2CCOCC2)cc1C(=O)Nc1ccc(Cl)cc1", "Potency": "inconclusive: 32.6 µM [cytotoxic, single point]"}
{"smiles": "CC1(C)Cc2c(c(-c3ccco3)nc3sc4c(NCC5CCCO5)ncnc4c23)CO1", "note": "(stereo unspecified)", "Potency": "inconclusive: 1.84 µM [cytotoxic, full curve]"}
{"smiles": "O=C(c1cc2cc(F)ccc2[nH]1)N1CCN(c2cccc(Cl)c2)CC1", "Potency": "inactive"}
{"smiles": "COc1ccccc1C(CNC(=O)c1ccc(OCc2c(C)noc2C)cc1)N1CCCC1", "note": "(stereo unspecified)", "activity change, negative = cytotoxicity": "inconclusive: -5.48%"}
{"smiles": "O=c1c2ccccc2n(Cc2cccc(Cl)c2)c(=O)n1Cc1ccccc1", "Potency": "inactive"}
{"smiles": "O=C(N/N=C/c1ccc([N+](=O)[O-])o1)C(O)c1ccccc1", "note": "(stereo unspecified)", "Potency": "inactive"}
{"smiles": "COc1cccc(-c2nn(-c3ccc(C)cc3)cc2C(=O)N2CCc3cc(OC)c(OC)cc3C2)c1", "Potency": "active: 23.1 µM"}
{"smiles": "COCCCNc1nc(NCc2ccc(C)cc2)c2cnn(C)c2n1", "Potency": "inactive"}
{"smiles": "Cc1cccc(NS(=O)(=O)c2cc(C(=O)OC(C)C(=O)NCc3ccc4c(c3)OCO4)ccc2C)c1", "note": "(stereo unspecified)", "Potency": "active: 14.6 µM"}
{"smiles": "COc1ccc(CN2CCNC(=O)C2CC(=O)N(Cc2nccn2C)C(C)C)c(OC)c1", "note": "(stereo unspecified)", "Potency": "inconclusive: 32.6 µM [rising, single point]"}
{"smiles": "CCN(Cc1ccc(OC)c(COC)c1)CC1CCCN(CCc2cccc(F)c2)C1", "note": "(stereo unspecified)", "Potency": "inconclusive: 18.4 µM [cytotoxic, single point]"}
{"smiles": "Cc1ccc(NC(=O)C(NC2CCCc3ccccc32)c2ccccc2)cc1Cl", "note": "(stereo unspecified)", "Potency": "inactive"}
{"smiles": "COc1cc(C(=O)NC(=S)Nc2ccc(Cl)cn2)cc(OC)c1OC", "Potency": "inconclusive: 29.1 µM [cytotoxic, single point]"}
{"smiles": "CCOc1ccc2[nH]c(=O)c(CN(Cc3nnnn3CCc3ccccc3)CC3CCCO3)cc2c1", "note": "(stereo unspecified)", "Potency": "inconclusive: 1.16 µM [cytotoxic, full curve]"}
{"smiles": "NC(=O)CC(NC(=O)Cc1ccc(Cl)cc1)c1ccc(N2CCC(Cc3ccccc3)CC2)c([N+](=O)[O-])c1", "note": "(stereo unspecified)", "Potency": "inactive"}
{"smiles": "CC1=CC(=O)C=CC1=Nc1ccc(N(C)C)cc1", "Potency": "inconclusive: 23.1 µM [cytotoxic, partial curve, poor fit]"}
{"smiles": "Cc1nc(-c2ccccc2)nc2n[nH]c(N)c12", "Potency": "inconclusive: 3.66 µM [cytotoxic, partial curve, poor fit]"}
{"smiles": "CN(c1cccc(NC(=O)Nc2ccc(Cl)cc2)c1)S(C)(=O)=O", "Potency": "inactive"}
{"smiles": "O=C1N=C(N2CCOCC2)S/C1=C\\c1ccccc1OS(=O)(=O)c1ccccc1", "Potency": "inconclusive: 16.4 µM [cytotoxic, partial curve, poor fit]"}
{"smiles": "COc1ccc(C2CC(c3cccs3)=NN2C(=S)Nc2ccccc2)cc1OC", "note": "(stereo unspecified)", "Potency": "inactive"}
{"smiles": "CC(C)Oc1cc(NC(=O)CS(=O)CC(=O)Nc2cccc(C(F)(F)F)c2)c(Cl)cc1Cl", "note": "(stereo unspecified)", "Potency": "inactive"}
{"smiles": "O=C(Nc1ccc2c(c1)nc1n2CCN(Cc2ccccc2)C1)NC1CCCCC1", "Potency": "inactive"}
{"smiles": "COc1ccc(C(=O)/C=C/Nc2ccccn2)c(OC)c1", "Potency": "inconclusive: 14.6 µM [cytotoxic, partial curve]"}
{"smiles": "C=CCN1C(=O)C(CC(=O)Nc2ccc(OCCC)cc2)N(CCCN2CCN(Cc3ccccc3)CC2)C1=S", "note": "(stereo unspecified)", "Potency": "inconclusive: 23.1 µM [cytotoxic, single point]"}
{"smiles": "COC(=O)c1ccccc1NC(=O)c1cc[n+]([O-])cc1", "Potency": "inactive"}
{"smiles": "O=C1C(=O)N(CCO)C(c2ccc(Br)cc2)/C1=C(\\O)c1ccccc1", "note": "(stereo unspecified)", "Potency": "inconclusive: 18.4 µM [rising, single point]"}
{"smiles": "COc1ccc(CCNC(=O)c2ccc(Cn3c(=O)[nH]c4cc(OC)c(OC)cc4c3=O)cc2)cc1OC", "Potency": "inconclusive: 29.1 µM [rising, single point]"}
{"smiles": "Cc1ccc(N=Cc2ccccc2O)cc1Cl", "Potency": "inconclusive: 18.4 µM [rising, single point]"}
{"smiles": "CCn1c(SCC(=O)N2CCN(S(=O)(=O)c3ccccc3)CC2)nnc1-c1cccs1", "Potency": "inconclusive: 23.1 µM [cytotoxic, single point]"}
{"smiles": "CC(C)n1c(/N=C/c2ccccc2O)nc2ccccc21", "Potency": "inactive"}
{"smiles": "COc1ccc(Nc2cc(C(=O)NCCCN3CCOCC3)c3ccccc3n2)cc1", "Potency": "inactive"}
{"smiles": "Cc1ccc(OCC(=O)N/N=C\\c2ccncc2)c(C)c1", "Potency": "inactive"}
{"smiles": "COc1ccc(C(=O)Cn2c(C(=O)/C=C/c3ccccc3)nc3ccccc32)cc1", "Potency": "inconclusive: 16.4 µM [cytotoxic, single point]"}
{"smiles": "CCCCc1nc(N2CCOCC2)c(C#N)c2c1COC(C)(C)C2", "Potency": "inconclusive: 23.1 µM [cytotoxic, single point]"}
{"smiles": "COc1ccc(CC(=O)NCc2nn(-c3ccccc3)nc2C)cc1OC", "Potency": "inconclusive: 16.4 µM [cytotoxic, single point]"}
{"smiles": "O=C(CCCC(=O)NN=Cc1ccccc1Cl)NN=Cc1ccccc1Cl", "Potency": "inactive"}
{"smiles": "CCCCNC(=O)C1C(c2ccc(OC)cc2)=Nc2ccccc2N1C(=O)Cc1cc(OC)cc(OC)c1", "note": "(stereo unspecified)", "Potency": "inconclusive: 9.2 µM [cytotoxic, partial curve]"}
{"smiles": "C=CCn1c(SCc2nc3ccccc3[nH]2)nnc1-c1cccc(OC)c1", "Potency": "active: 3.66 µM"}
{"smiles": "CCOC(=O)C1=C(C)NC(C)=C(C(=O)OCC)C1c1ccc([N+](=O)[O-])s1", "Potency": "inconclusive: 9.2 µM [cytotoxic, partial curve]"}
{"smiles": "CN(C)c1ncnc2c1C(c1ccccc1)C(C)(C)O2", "note": "(stereo unspecified)", "Potency": "active: 18.4 µM"}
{"smiles": "CCc1ccccc1N(CC)C(=O)C1CCN(c2ncnc3c2nc2n3CCCCC2)CC1", "Potency": "inconclusive: 13 µM [cytotoxic, partial curve, poor fit]"}
